{
  "source": "patent US20240350634A1",
  "binders": {"B1": {"name": "IgG Ab #2 (2D4) (antibody, V domains shown)", "VH": "EVQLQQSGTVLARPGASVKMSCKASGYSFTSYWMHWVKQRPGQGLEWIGAIYPGNSDTSYNQKFKGKAKLTAVTSASTAYMELSCLTNEDSAVFYCTRSQFYSGSSEDAMDYWGQGTSVTVSS", "VL": "DVLMTQTPLSLPVSLGDQASISCRSSQSIVHSNGNTYLEWYLQKPGQSPKLLIYKVSNRFSGVPDRFSGSGSGTDFTLKISRVEAEDLGVYFCFQGSHVPWTFGGGTKLEIK"}, "B2": {"name": "IgG Ab #3 (3D6) (antibody, V domains shown)", "VH": "QIQLVQSGPELKKPGETVKISCKASGYTFTNYGMNWLKQAPGKGLKWMGWINTNTGEPTYAEEFKGRFAFSLETSASTAYLQINNLKNEDTATYFCARKDYRYWFAYWGQGTLVTVSA", "VL": "B1 VL with F92Y, W101F, G105S"}},
  "molecular_target": "CoaB coat protein of Pf4 bacteriophage (Pf4 bacteriophage)",
  "experiment": "Western blot",
  "note": "Positions count from the first letter of the chain named. No constants are given. Whether binding was seen depends on the method and setting. Binding calls can cover weak binding; strength is not graded here.",
  "data": [
    {"binder": "B1", "values": [
      {"measurement": "binding", "value": "binds"}
    ]},
    {"binder": "B2", "values": [
      {"measurement": "binding", "value": "binds"}
    ]}
  ]
}
